From PMC3907333
No constants are given. Whether binding was seen depends on the method and setting. In cells and extracts the contact can be indirect.

Chains of the proteins cited; added tags and fusions are not shown.
UniProt O13731: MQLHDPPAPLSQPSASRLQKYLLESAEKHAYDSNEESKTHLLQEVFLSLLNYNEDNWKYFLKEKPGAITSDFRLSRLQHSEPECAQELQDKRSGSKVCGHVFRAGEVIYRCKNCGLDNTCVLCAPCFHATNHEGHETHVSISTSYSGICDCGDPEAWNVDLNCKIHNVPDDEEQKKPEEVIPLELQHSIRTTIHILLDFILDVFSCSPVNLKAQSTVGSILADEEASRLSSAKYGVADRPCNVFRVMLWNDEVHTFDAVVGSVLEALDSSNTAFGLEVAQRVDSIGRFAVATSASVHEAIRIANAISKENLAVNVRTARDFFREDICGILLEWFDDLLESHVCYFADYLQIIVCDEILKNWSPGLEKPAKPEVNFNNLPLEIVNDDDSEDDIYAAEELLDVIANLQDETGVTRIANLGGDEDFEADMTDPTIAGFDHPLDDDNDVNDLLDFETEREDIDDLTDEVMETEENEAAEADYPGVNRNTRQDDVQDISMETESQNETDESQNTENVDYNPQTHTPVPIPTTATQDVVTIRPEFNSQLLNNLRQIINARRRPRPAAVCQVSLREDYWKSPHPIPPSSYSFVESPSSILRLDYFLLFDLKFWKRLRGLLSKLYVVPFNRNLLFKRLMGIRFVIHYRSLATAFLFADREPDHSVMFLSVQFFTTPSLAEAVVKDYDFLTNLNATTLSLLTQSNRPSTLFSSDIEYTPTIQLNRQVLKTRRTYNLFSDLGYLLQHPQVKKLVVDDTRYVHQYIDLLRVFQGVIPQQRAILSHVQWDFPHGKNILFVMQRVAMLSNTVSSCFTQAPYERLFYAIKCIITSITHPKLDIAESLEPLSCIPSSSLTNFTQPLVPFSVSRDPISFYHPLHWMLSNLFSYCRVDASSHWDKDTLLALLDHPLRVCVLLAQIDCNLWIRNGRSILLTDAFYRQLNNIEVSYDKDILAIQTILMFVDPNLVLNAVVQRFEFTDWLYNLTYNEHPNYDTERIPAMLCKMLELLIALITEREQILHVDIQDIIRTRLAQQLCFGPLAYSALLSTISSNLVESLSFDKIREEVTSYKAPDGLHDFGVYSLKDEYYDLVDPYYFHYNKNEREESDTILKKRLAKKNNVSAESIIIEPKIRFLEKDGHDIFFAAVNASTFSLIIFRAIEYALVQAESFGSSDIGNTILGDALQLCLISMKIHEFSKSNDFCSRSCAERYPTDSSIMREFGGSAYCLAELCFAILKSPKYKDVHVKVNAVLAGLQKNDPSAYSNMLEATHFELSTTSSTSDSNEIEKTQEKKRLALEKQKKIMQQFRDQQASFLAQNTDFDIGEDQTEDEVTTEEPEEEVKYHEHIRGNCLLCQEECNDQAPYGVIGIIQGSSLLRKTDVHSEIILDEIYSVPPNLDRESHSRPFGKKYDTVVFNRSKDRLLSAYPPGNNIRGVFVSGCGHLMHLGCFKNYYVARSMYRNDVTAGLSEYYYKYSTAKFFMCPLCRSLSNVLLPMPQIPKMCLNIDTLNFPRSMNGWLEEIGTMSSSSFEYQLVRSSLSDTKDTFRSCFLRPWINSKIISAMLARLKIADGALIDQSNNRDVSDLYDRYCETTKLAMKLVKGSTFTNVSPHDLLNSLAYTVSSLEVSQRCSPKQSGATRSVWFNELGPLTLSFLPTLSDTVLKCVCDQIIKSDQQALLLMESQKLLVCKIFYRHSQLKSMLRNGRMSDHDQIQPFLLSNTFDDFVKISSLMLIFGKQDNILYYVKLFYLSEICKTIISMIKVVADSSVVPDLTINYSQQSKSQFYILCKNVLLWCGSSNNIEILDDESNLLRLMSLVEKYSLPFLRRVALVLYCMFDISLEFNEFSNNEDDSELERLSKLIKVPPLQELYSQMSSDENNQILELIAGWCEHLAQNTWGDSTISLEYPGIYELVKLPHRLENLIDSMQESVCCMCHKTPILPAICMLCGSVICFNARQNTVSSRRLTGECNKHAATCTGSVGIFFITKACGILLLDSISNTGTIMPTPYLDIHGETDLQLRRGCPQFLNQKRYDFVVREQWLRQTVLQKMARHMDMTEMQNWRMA

Biological target: V5-tagged Ubr11 (S. pombe) (UniProt O13731)
Assay: co-IP; V5-tagged Ubr11 or Flag-tagged San1 precipitated with antibodies to V5 or Flag from S. pombe cells treated with Bortezomib; control antibody; blot for HA (Spc7)

binding: no binding
B1: Spc7-3HA (wild type) (protein, UniProt O59757 1-1364)
chain: MPTSPRRNSIATTDNVIGRNKSRKRPHSLGGPGALQELKEHTNPAKGILKSYSSFSVDPAFTGDEDFNDIHTQINNTVIGISSNVMAASKRLQMEDLQQLSRETSRKSLNRRVSFASHARVRWYPKDHQSDSEKSTSNHSTPERTFASDAKNHSPKGPTTTSFSRNETQSSPHSHSASIISDGSDMDIASPIRSTESDMVSEALNAGHPPPSLYPENDDLSIQNPTKALPEAEKALDVHDATREQVNDREETNMDLTIQFQEADSFLSHSESIKGLSSSEQGTVYSLKASHDPSNQTQLSSPNKSSSPTSIEISDFSKNNENHDQSENKEEEEDMMLTRPIEIPQHFSPIARPLTSQEAIVDMDITSNNINLSPVSHFSNGLDLQNLEEAPMNLTRPINANPHLTNHSPNDLTNGEEEMDTTSAFNIENSHLTLLSPIRPSSRSMEEQIMDLTQPISSTNAPTHLNEDDLNQFTSNISSSSKPRKDNNKTANSSKPIPDSEDFMDITRPFNILSPSKEALSEEQPMELTSTVFPCENSTSHLEVEEAAMDETVAFQIRGNNVELPSADKENAEREEIPSYSDKSENFNTTSFTNHERSPNGNNNLKFSKDPNSSSPSRHVVATPTDKLGTRKRRLRYSTSSFDQSTLRRNRLATIRNARKSISTLNDRELLPVNFFEKKVNSGLYKSVERSENYRLGATPLTAEKPFTTEKPLSSLPEEVSRQPTDDKGEQVSNADVDSGLSKTERLTIQQTNEIKHVPTNTTSSVKLPQQPSNEDEKERITTADYADSTSLERLESQEPNRNELVQVGSSNAGNTTSVGMNEHEKSPVKLSKGVSNVDTSLGASTINTNILNQDSGPNEEIPVGNEPEFDTMPTLPNVEPISLSDFLKMTGIEFLDNLTIAKRRETLLPNAEENKKCSIQELLESFYIQFPLLELYKFSCQQLQDYIAEGKDFVTKIEEETLKENPLLFYEYRKASSDMRVLMDSQFLMMKTFARLQAKGDWYEWREGLMQGIKHELNLNLTGMQRSLTHLMDVANVIHPYAQEIQERYNGSITTVQTLKKQKEFANQYDSTLLAQAQEKLEKLKVEVERRRRLLSEKEERRKELAIKIEQVTNSCSDLELRTNAEQDFYAKNQDFEFDEIKRYEEQLLNLKNELGWTIVSLTAGGIKLATNNTALSPYSAEVTVEILRQNFQVNVDIACKFPNESNACSSNVLEHVASSFSKWHSKVFSRNLRLLKKYLNDVSICWEQIVYLVQDFQRLWYHWPFLSVENDDKSIIINVELYLRSVSSKVKVVFGLPIDTIYQTTEVGKFYASTSVAVKQMYAESEGDSYVSEVLNTLSEVVHCTSTYALSSACLTVWNKYS
